The text below walks through data of PubChem BioAssay AID652042 (Broad Institute, 2013).

Among all 1,100 compounds or so, about 350 (32%) were called active. The rule behind the calls is not given here. Only a part is listed here, and it is no random draw. Measured potencies and affinities stand elsewhere.

The nature of the test: viability loss in CEM21 cells – cell-based, CellTiter-Glo luminescence, cherry-picked, cytotoxicity control for viral fusion inhibitor project, dose response (AID 652042). Particulars: CellTiter-Glo ATP luminescence, 24 h; at 35 µM (top of the series). For orientation: Cellular ATP, detected with luciferase, serves as a proxy for viable cell number.
With `CCC(=NCc1ccc(F)cc1)c1c(O)n(C)c(=O)n(C)c1=O`, the activity change, negative = cytotoxicity was inactive: -10.8%.

For `COc1ccc(-n2c(O)c(C(C)=NCCCn3ccnc3)c(=O)[nH]c2=O)cc1`, the activity change, negative = cytotoxicity is inactive: -7.79%. The figure for `CC(Cc1ccc(O)cc1)NCC(O)c1cc(O)cc(O)c1` (stereo not drawn) is inactive: 8.94%; for `Cn1nc(-c2ccc(OCC(=O)N3CCN(Cc4ccccc4)CC3)cc2)c2ccccc2c1=O` it is inactive: -2.4%; for `O=c1c2ccccc2nc(CN2CCCCCC2)n1-c1ccc(F)cc1` it is inactive: -8.4%. The figure for `CC[C@@]1(O)C(=O)OCc2c1cc1n(c2=O)Cc2cc3c(NC(=O)CN)cccc3nc2-1` is inactive: -30.1%; for `O=C(Nc1ccc(C(F)(F)F)cc1)c1cccn(Cc2ccc3c(c2)OC(F)(F)O3)c1=O` it is inactive: -19.7%; for `COc1ccc(OC(=O)N(C)C[C@@H]2OCc3ccccc3-c3c(n(C)c4ccccc34)C(=O)N([C@H](C)CO)C[C@@H]2C)cc1` it is inactive: -18.2%. The figure for `CCC(=NCCc1c[nH]c2ccccc12)c1c(O)n(C)c(=O)n(C)c1=O` is inactive: -26.7%. Regarding `O=C(Nc1cccc(OC(=O)N2CCOCC2)c1)N1CCOCC1`, the activity change, negative = cytotoxicity was inactive: -0.601%. The figure for `CC(C)NS(=O)(=O)c1ccc(OCC(=O)N2CCN(Cc3ccc4c(c3)OCO4)CC2)c(Cl)c1` is inactive: -18.8%; for `O=c1cccc2n1CC1CC2CN(c2nc(N3CCCCC3)nc(N3CCCCC3)n2)C1` (stereo not drawn) it is inactive: -5.53%. For `Cc1nnc(SCc2nc3ccccc3c(=O)n2-c2ccccc2Cl)n1N`, the activity change, negative = cytotoxicity is inactive: 0.697%.
